PubChem BioAssay AID1259405 | NCATS – 2018
This is one part, drawn at random, of about 50,000 reagents. In the full data, about 4,000 (8%) are marked active. 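Mouse siRNA library applied to hamster cells; one well for each siRNA.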 Reagents against one gene are numbered here.

Screen: 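Knock-downs that lift recombinant protein yield in hamster ovary cells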 (primary screen)
System: Chinese hamster CHO-K1 ovary cells with stable secreted eGFP expression
Knock-down reagent: single siRNA against mouse genes, 0.8 pmol siRNA per well (2 µl of 400 nM stock)
Time to read-out: 3 days
Detection: 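Per-well intracellular GFP measured by laser scanning cytometry, plus viability from ATP luminescence, each relative to plate median of non-targeting control wells, in %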
Direction: GFP, % of control: higher = more GFP per well, higher productivity; viability (ATP), % of control: higher = more viable cells (more ATP)
Call rule: 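a knock-down is called active if GFP reaches 120% or more of non-targeting control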

What is on record for Pds5a #1?
GFP, % of control: 78; viability (ATP), % of control: 55.5; outcome: inactive

What did the screen give for Pds5a #2?
GFP, % of control: 91.1; viability (ATP), % of control: 74.4; outcome: inactive

What did the screen give for Pds5a #3?
GFP, % of control: 90.5; viability (ATP), % of control: 89.5; outcome: inactive

For Ceacam13 #1, what does the deposit list?
GFP, % of control: 65.3; viability (ATP), % of control: 55.8; outcome: inactive

With Ceacam13 #2, what does the deposit list?
GFP, % of control: 116; viability (ATP), % of control: 63.1; outcome: inactive

For Ceacam13 #3, what was measured?
GFP, % of control: 88.7; viability (ATP), % of control: 72.1; outcome: inactive

For Rtl6 #1, how do the results read?
GFP, % of control: 59.9; viability (ATP), % of control: 77.8; outcome: inactive

Which result is listed for Rtl6 #2?
GFP, % of control: 82.3; viability (ATP), % of control: 114; outcome: inactive

What is on record for Rtl6 #3?
GFP, % of control: 113; viability (ATP), % of control: 147; outcome: inactive

Which result is listed for Reck #1?
GFP, % of control: 71; viability (ATP), % of control: 62.9; outcome: inactive

With Reck #2, how do the results read?
GFP, % of control: 81.5; viability (ATP), % of control: 84.1; outcome: inactive

For Reck #3, how do the results read?
GFP, % of control: 61.2; viability (ATP), % of control: 61.8; outcome: inactive

For Or52k2 #1, what does the deposit list?
GFP, % of control: 110; viability (ATP), % of control: 102; outcome: inactive

What is on record for Or52k2 #2?
GFP, % of control: 89.9; viability (ATP), % of control: 91.4; outcome: inactive

For Or52k2 #3, how do the results read?
GFP, % of control: 80.2; viability (ATP), % of control: 93.9; outcome: inactive

For Prmt2 #1, how do the results read?
GFP, % of control: 56.2; viability (ATP), % of control: 65; outcome: inactive

What did the screen give for Prmt2 #2?
GFP, % of control: 96.5; viability (ATP), % of control: 123; outcome: inactive

How did the screen score Prmt2 #3?
GFP, % of control: 91.9; viability (ATP), % of control: 110; outcome: inactive

Which result is listed for Thrap3 #1?
GFP, % of control: 104; viability (ATP), % of control: 91.9; outcome: inactive

Which result is listed for Thrap3 #2?
GFP, % of control: 68; viability (ATP), % of control: 58.1; outcome: inactive

What did the screen give for Thrap3 #3?
GFP, % of control: 81.9; viability (ATP), % of control: 51.6; outcome: inactive

What is on record for Nnat #1?
GFP, % of control: 71.4; viability (ATP), % of control: 74.9; outcome: inactive

For Nnat #2, how do the results read?
GFP, % of control: 108; viability (ATP), % of control: 84.6; outcome: inactive

With Nnat #3, what was measured?
GFP, % of control: 67.2; viability (ATP), % of control: 68.8; outcome: inactive

What did the screen give for Gas2l2 #1?
GFP, % of control: 53.4; viability (ATP), % of control: 60.6; outcome: inactive

What did the screen give for Gas2l2 #2?
GFP, % of control: 80.4; viability (ATP), % of control: 45; outcome: inactive

What is on record for Gas2l2 #3?
GFP, % of control: 141; viability (ATP), % of control: 94.8; outcome: active

Part of the list above in another layout:
target	reagent	GFP, % of control	viability (ATP), % of control	outcome
Thrap3	2	68	58.1	inactive
Thrap3	3	81.9	51.6	inactive
Nnat	1	71.4	74.9	inactive
Nnat	2	108	84.6	inactive
Nnat	3	67.2	68.8	inactive
Gas2l2	1	53.4	60.6	inactive
Gas2l2	2	80.4	45	inactive
Gas2l2	3	141	94.8	active

Continued.
What is on record for Ddo #1?
GFP, % of control: 52.3; viability (ATP), % of control: 38.1; outcome: inactive

What is on record for Ddo #2?
GFP, % of control: 89.4; viability (ATP), % of control: 82.9; outcome: inactive

With Ddo #3, how do the results read?
GFP, % of control: 116; viability (ATP), % of control: 62.4; outcome: inactive

With Phactr1 #1, how do the results read?
GFP, % of control: 79.1; viability (ATP), % of control: 61.2; outcome: inactive

With Phactr1 #2, what does the deposit list?
GFP, % of control: 61.5; viability (ATP), % of control: 42; outcome: inactive

Which result is listed for Phactr1 #3?
GFP, % of control: 98.6; viability (ATP), % of control: 113; outcome: inactive

What did the screen give for Clcn2 #1?
GFP, % of control: 97.1; viability (ATP), % of control: 91.9; outcome: inactive

For Clcn2 #2, what does the deposit list?
GFP, % of control: 78.3; viability (ATP), % of control: 96.1; outcome: inactive

With Clcn2 #3, how do the results read?
GFP, % of control: 35.1; viability (ATP), % of control: 54.2; outcome: inactive

What is on record for Smg6 #1?
GFP, % of control: 105; viability (ATP), % of control: 87.4; outcome: inactive

For Smg6 #2, what was measured?
GFP, % of control: 90.9; viability (ATP), % of control: 40.4; outcome: inactive

How did the screen score Smg6 #3?
GFP, % of control: 98.3; viability (ATP), % of control: 82.8; outcome: inactive

What did the screen give for Gcsh #1?
GFP, % of control: 62.6; viability (ATP), % of control: 56.1; outcome: inactive

For Gcsh #2, what does the deposit list?
GFP, % of control: 90; viability (ATP), % of control: 95.7; outcome: inactive

What did the screen give for Gcsh #3?
GFP, % of control: 101; viability (ATP), % of control: 76.7; outcome: inactive

For Brd4 #1, what was measured?
GFP, % of control: 66.1; viability (ATP), % of control: 49.1; outcome: inactive

With Brd4 #2, what does the deposit list?
GFP, % of control: 55.8; viability (ATP), % of control: 16.1; outcome: inactive

What did the screen give for Brd4 #3?
GFP, % of control: 52; viability (ATP), % of control: 46; outcome: inactive

With Rpl27 #1, what was measured?
GFP, % of control: 93.1; viability (ATP), % of control: 64.9; outcome: inactive

How did the screen score Rpl27 #2?
GFP, % of control: 64.5; viability (ATP), % of control: 39.1; outcome: inactive

How did the screen score Rpl27 #3?
GFP, % of control: 28.6; viability (ATP), % of control: 21.4; outcome: inactive

With Dbf4 #1, what was measured?
GFP, % of control: 80.9; viability (ATP), % of control: 81.8; outcome: inactive

What did the screen give for Dbf4 #2?
GFP, % of control: 108; viability (ATP), % of control: 98.5; outcome: inactive

For Rft1 #1, what was measured?
GFP, % of control: 62.7; viability (ATP), % of control: 75.9; outcome: inactive

Which result is listed for Rft1 #2?
GFP, % of control: 59.6; viability (ATP), % of control: 81; outcome: inactive

With Rft1 #3, what was measured?
GFP, % of control: 77; viability (ATP), % of control: 87.6; outcome: inactive
